These are yes or no findings as the source states them, for the method shown. Binding seen in cells or lysates may run through a third protein. Some entries that bind do so weakly or less than the wild type.
Tests used:
[1] = target: …3 (SEP3), in vitro translated (Arabidopsis thaliana) (UniProt O22456); assay: co-IP; in vitro: proteins co-synthesized in one tube in wheat germ extract with biotinylated lysine; AP1 or SEP3 as bait precipitated with AP1 or SEP3 antibodies, Protein A MicroBeads, 4°C; Western blot with Streptavidin-Alkaline Phosphatase
[2] = target: APETALA1 (AP1), in vitro translated (Arabidopsis thaliana) (UniProt P35631); assay: as above

Sequences of proteins named here, by UniProt entry; tags and fusion partners are left off.
UniProt P35631: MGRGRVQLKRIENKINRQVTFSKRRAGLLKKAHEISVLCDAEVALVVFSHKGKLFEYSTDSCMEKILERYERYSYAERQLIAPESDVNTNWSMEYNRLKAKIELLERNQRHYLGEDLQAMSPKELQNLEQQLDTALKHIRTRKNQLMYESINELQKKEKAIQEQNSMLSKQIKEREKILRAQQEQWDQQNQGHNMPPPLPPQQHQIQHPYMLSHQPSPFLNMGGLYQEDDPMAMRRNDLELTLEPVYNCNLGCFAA

- binding [1]: binds
- binding [2]: binds
B1: LEUNIG_HOMOLOG (LUH), in vitro translated (protein, UniProt O48847 1-787)
chain: MAQSNWEADKMLDVYIYDYLVKKKLHNTAKSFMTEGKVSPDPVAIDAPGGFLFEWWSVFWDIFIARTNEKHSEAAAAYIEAQQGKAKEQQMQIQQLQMMRQAQMQRRDPNHPSLGGPMNAIGSEGMIGQSNASALAAKMYEERMKQPNPMNSETSQPHLDARMALLKSATNHHGQIVQGNHQGGVSAALQQIQSRTQQPTEIKTEVNLGTSPRQLPVDPSTVYGQGILQSKPGMGSAGLNPGVSGLPLKGWPLTGIEQMRPGLGGPQVQKSFLQNQSQFQLSPQQQQHQMLAQVQAQGNMTNSPMYGGDMDPRRFTGLPRGNLNPKDGQQNANDGSIGSPMQSSSSKHISMPPVQQSSSQQQDHLLSQQSQQNNRKRKGPSSSGPANSTGTGNTVGPSNSQPSTPSTHTPVDGVAIAGNMHHVNSMPKGPMMYGSDGIGGLASSANQLLQDDMDQFGDVGALEDNVESFLSQDDGDGGSLFGTLKRNSSVHTETSKPFSFNEVSCIRKSASKVICCSFSYDGKLLASAGHDKKVFIWNMETLQVESTPEEHAHIITDVRFRPNSTQLATSSFDKTIKIWDASDPGYFLRTISGHAAPVMSIDFHPKKTELLCSCDSNNDIRFWDINASCVRAVKGASTQVRFQPRTGQFLAAASENTVSIFDIENNNKRVNIFKGHSSNVHSVCWSPNGELVASVSEDAVKLWSLSSGDCIHELSNSGNKFHSVVFHPSYPDLLVIGGYQAIELWNTMENKCMTVAGHECVISALAQSPSTGVVASASHDKSVKIWK
modifications: biotinylated lysine residues (Transcend tRNA)

— article PMC12643531
